Where “and” joins values, the source holds several entries; their conditions need not be identical. Identical values can stand only once. For at least one compound, name, drawing or mass did not settle the structure.
What was measured:
Type in all cases: physicochemical
[1] = Differential scanning calorimetry (DSC) thermal properties; conditions: M-3 M and N-3 M stored for 3 months
[2] = Density of encapsulated powder (helium gas pycnometer); conditions: pure material
[3] = X-ray diffraction (XRD) physical state; conditions: Example 1 (FF), fresh
Protocol: The physical state of the spray-dried emulsions samples was obtained with an X-ray diffractometer (APD 3520, Philips, Netherlands). The instrument was operated at 35 kV, 20 mA with Cu-Kα radiation, a theta-compensating slit, and a diffracted beam monochromator. Data were recorded between the diffraction angles (2θ) of 2° and 35°. Differential scanning calorimetry (DSC) measurement of spray dried drug powder was studied with the TA instrument Q200 V24.4 (New Castle, Del., USA) in a range of −20 to 120° C. under nitrogen flow of 70 mL/min. The spray-dried emulsions powder (3-5 mg) was accurately weighed into DSC stainless steel pan. An empty pan was used as a reference. The heating rate of 10° C./min was used.
The physical state of the spray-dried emulsions samples was obtained with an X-ray diffractometer (APD 3520, Philips, Netherlands). The instrument was operated at 35 kV, 20 mA with Cu-Kα radiation, a theta-compensating slit, and a diffracted beam monochromator. Data were recorded between the diffraction angles (2θ) of 2° and 35°.

## CC(C)OC(=O)C(C)(C)Oc1ccc(C(=O)c2ccc(Cl)cc2)cc1 [FF, Fenofibrate]
[1]
  Tc (° C.): 115.0 ± 1.2 a ° C.
  To (° C.): 79.7 ± 0.5 a ° C.
  Tp (° C.): 81.5 °C and 81.5 ± 0.4 a ° C.
  ΔH: 75.5 J/g
  ΔH (J/g): 75.5 ± 0.4 a J/g
[2]
  density of starting material: 1.25 g/mL
[3]
  XRD physical state: crystalline form
